Measured values taken from PubChem BioAssay AID720504 (National Center for Advancing Translational Sciences (NCATS), 2013).
The whole screen tested about 360,000 compounds, of which about 10,000 (2.8%) were called active. Inconclusive means that the source gave no clear call. Such entries were picked first, then a sample of the others. The call rests on the fitted dose curve; in most records, active means well fitted inhibition curve with a large enough effect; inconclusive means small, poorly fitted or top-dose-only effect; inactive means flat fitted curve, though single readings scatter. A potency beside an inconclusive call is a rough fit, not a confirmed value.

Chains of the proteins cited; added tags and fusions are not shown.
UniProt P53350, whole entry, looked up: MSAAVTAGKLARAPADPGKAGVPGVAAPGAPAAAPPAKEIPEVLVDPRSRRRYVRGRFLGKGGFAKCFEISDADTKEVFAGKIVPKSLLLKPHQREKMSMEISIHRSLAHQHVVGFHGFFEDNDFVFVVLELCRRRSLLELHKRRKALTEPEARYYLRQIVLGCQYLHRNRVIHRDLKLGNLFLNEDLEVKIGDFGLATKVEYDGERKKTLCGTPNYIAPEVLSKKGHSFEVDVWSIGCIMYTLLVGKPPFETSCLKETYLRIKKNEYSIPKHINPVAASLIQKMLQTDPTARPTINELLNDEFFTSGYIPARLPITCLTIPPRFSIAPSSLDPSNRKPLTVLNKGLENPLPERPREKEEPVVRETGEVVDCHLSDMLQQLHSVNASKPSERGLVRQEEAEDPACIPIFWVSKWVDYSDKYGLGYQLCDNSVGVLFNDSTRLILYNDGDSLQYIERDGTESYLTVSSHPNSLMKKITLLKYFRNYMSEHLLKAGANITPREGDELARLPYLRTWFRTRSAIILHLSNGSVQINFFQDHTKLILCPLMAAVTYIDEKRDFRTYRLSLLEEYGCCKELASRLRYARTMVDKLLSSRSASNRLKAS

Each molecule was assayed against Serine/threonine-protein kinase PLK1 (Homo sapiens) (UniProt P53350) (assay: qHTS for Inhibitors of PLK1-PDB (polo-like kinase 1 - polo-box domain): Primary Screen). Conditions: Plk1 PBD binding of FITC phosphopeptide, fluorescence polarization.
Further: nearly all actives have a fitted effect of over 65% in size.
On the % scale 0 is the no-effect control and ±100 the full control effect; potency means the concentration at half of the fitted maximal effect.
Wherever max response, negative = inhibition is given: series mostly up to about 57 µM.

Compound | max response, negative = inhibition | Potency
CCc1cc(C(=O)N2CCCc3ccccc32)sc1C | inactive: -6.03% | 
N#C/C(=C\c1coc2ccc(O)cc2c1=O)C(=O)Nc1nc2ccccc2s1 |  | inconclusive: 21.2 µM [inhibitor, single point]
O=C(CN1C(=O)c2ccccc2S1(=O)=O)Nc1ccc(S(=O)(=O)N2CCCC2)cc1 | inactive: -0.631% | 
O=S(=O)(c1ccc(Oc2ncnc3scc(-c4ccccc4)c23)cc1)N1CCOCC1 | inactive: -10.7% | 
OC1=C(O)c2nc3ccccc3nc21 |  | inconclusive: 29.9 µM [inhibitor, single point]
O=C(O)c1ccc(N=Cc2c(O)ccc3ccccc23)cc1 | inactive: -16.1% | 
O=C(c1cccs1)N1CCN(C(=O)C(c2ccccc2)c2ccccc2)CC1 |  | inconclusive: 29.9 µM [inhibitor, single point]
Cc1c(C(=O)NCc2c(F)cc(F)cc2F)oc2ccc(S(=O)(=O)N3CCOCC3)cc12 |  | active: 18.9 µM
CCN(CC)S(=O)(=O)c1ccc(/C=C/C(=O)OCC(=O)NCc2ccco2)cc1 | inactive: -15.5% | 
CCOC(=O)C1CCCN(S(=O)(=O)Cc2ccccc2)C1 (stereo not given) | inconclusive: -33% [inhibitor] | 
C[C@H](NC(=O)[C@@H]1Cc2ccccc2CN1)C(=O)NCC1CCCO1 (stereo not given in full) |  | active: 29.9 µM
CCc1nnc(NC(=O)/C=C/c2ccco2)s1 | inactive: -9.06% | 
CS(=O)(=O)c1ncc(Cl)c(C(=O)Nc2ccc(N3CCOCC3)cc2)n1 |  | inconclusive: 23.8 µM [inhibitor, partial curve]
CCN(CC(=O)Nc1sc2c(c1C#N)CCC(C)C2)Cc1nc2ccccc2c(=O)[nH]1 (stereo not given) | inactive: -6.64% | 
COCCSc1ccccc1C(=O)N1CCOCC1 |  | inconclusive: 15 µM [inhibitor, partial curve]
Cc1nc(S(=O)(=O)NC2CCCCC2)c(C#N)c(C)c1Cl |  | inconclusive: 23.8 µM [inhibitor, partial curve]
O=C(/C=C/c1cn(-c2ccccc2)nc1-c1ccc2c(c1)OCCO2)NCCO |  | inconclusive: 23.8 µM [inhibitor, single point]
COc1cccc(-c2cnc3c(NC=O)cc(-c4cccc(C(=O)N(C)C)c4)cn23)c1 | inconclusive: -32.6% [inhibitor] | 
CCOc1ccc(NC(=O)CCC(=O)NNC(=O)Nc2ccc(Cl)cc2)cc1 |  | inconclusive: 23.8 µM [inhibitor, single point]
CCOc1ccc(N2C(=O)CC(Sc3n[nH]c(-c4ccccc4)n3)C2=O)cc1 (stereo not given) |  | inconclusive: 29.9 µM [inhibitor, single point]
CCc1n[nH]c(=S)n1/N=C/c1ccc(NC(C)=O)cc1 |  | inconclusive: 21.2 µM [inhibitor, single point]
Cc1cc(Br)cn2c(Cc3ccsc3)c(C3CCCCC3)nc12 |  | inconclusive: 18.9 µM [inhibitor, partial curve]
CCCCn1nnnc1SCC(=O)NNC(=O)c1ccco1 |  | inconclusive: 23.8 µM [inhibitor, partial curve]
CCCCn1c(=O)n(Cc2cccc(F)c2)c(=O)c2c1ncn2Cc1ccco1 |  | inconclusive: 26.7 µM [inhibitor, single point]

Compound | max response, negative = inhibition | Potency
CN1C(=O)c2ccccc2CC12c1ccccc1C(=O)N2C (stereo not given) | inactive: 3.23% | 
CCc1noc(C)c1C(=O)OCC(=O)c1ccccc1OC | inactive: -2.78% | 
Cc1nc(CSc2n[nH]c(=O)n2-c2ccccc2)cs1 | inactive: 2.31% | 
Fc1ccc(C2Nc3cccc4cccc(c34)N2)cc1 |  | inconclusive: 23.8 µM [inhibitor, single point]
O=C(CSS(=O)(=O)O)N1CCN(C(=O)c2ccoc2)CC1 |  | inconclusive: 26.7 µM [inhibitor, partial curve]
C[C@H](NC(=O)[C@@H]1CSC2c3ccccc3C(=O)N21)C(=O)NC1CCCCC1 (stereo not given in full) | inconclusive: -28.9% [inhibitor] | 
CC(=O)CNc1ccc(S(=O)(=O)N/N=C/c2ccccc2)cc1 |  | inconclusive: 33.6 µM [inhibitor, partial curve]
Cc1[nH][nH]c(=O)c1C(c1ccc(-c2cccc(C(=O)O)c2)o1)c1c(C)[nH][nH]c1=O |  | inconclusive: 26.7 µM [inhibitor, partial curve]
CSc1ncccc1-c1nc2ccccc2[nH]1 | inactive: -19.2% | 
CN1CCN(CCOC2Cc3ccccc3Sc3ccc(Cl)cc32)CC1 (stereo not given) | inactive: -2% | 
Cc1ccc(NC(=S)NC(=O)CC2CC(C)(C)OC2=O)cc1 (stereo not given) |  | inconclusive: 8.44 µM [inhibitor, single point]
Nc1nc(-c2ccccc2)cs1 |  | inconclusive: 18.9 µM [inhibitor, partial curve]
CC(C)(C)C(=O)Nc1nnc(CCc2ccccc2)s1 |  | inconclusive: 26.7 µM [inhibitor, single point]
O=C(O)CN1C(=O)C2C3CC(C2C1=O)C1C(c2ccc(F)cc2)c2sc(=O)[nH]c2SC31 (stereo not given) | inconclusive: -30.5% [inhibitor] | 
Cn1c(-c2sccc2OCc2ccc(Cl)cc2Cl)n[nH]c1=S |  | active: 26.7 µM
Nc1sc2c(c1C(=O)NCCc1ccccc1)CCC2 | inconclusive: -36.3% [inhibitor] | 
CC1(C)Cc2c(C#N)c(N3CCN(C(=O)c4ccccc4Cl)CC3)nc(-c3ccco3)c2CS1 |  | inconclusive: 21.2 µM [inhibitor, single point]
COc1ccc2cc(C=NS(=O)(=O)c3ccc(C)cc3)n(C)c2c1 |  | inconclusive: 3.36 µM [inhibitor, full curve]
O=C(CSc1nnc(Cc2ccccc2)o1)N1CCCc2ccccc21 |  | inconclusive: 26.7 µM [inhibitor, partial curve]
COc1ccc(-c2cn3nc4c(nc3n2)CCCC4)cc1 |  | inconclusive: 18.9 µM [inhibitor, partial curve]
N#C/C(=C\c1cccc(Br)c1)C(=O)N1CCCCC1 |  | inconclusive: 23.8 µM [inhibitor, single point]
Fc1ccc(CSc2nc3ncccc3[nH]2)cc1 |  | inconclusive: 29.9 µM [inhibitor, single point]
O=S(=O)(NCCCSc1ccccc1)c1ccccc1F |  | inconclusive: 16.8 µM [inhibitor, partial curve]
O=C1CCN(Cc2ccccc2)S(=O)(=O)c2ccccc21 | inactive: -13.5% | 

Compound | max response, negative = inhibition | Potency
O=C(N/N=C1/CC2C=CCC12)c1ccco1 (stereo not given) |  | active: 29.9 µM
CCC(C(=O)Nc1nc(C)cs1)c1ccccc1 (stereo not given) |  | active: 26.7 µM
COc1ccc(OC)c(NC(=O)c2ccc(S(=O)(=O)N3CCOCC3)cc2)c1 |  | inconclusive: 33.6 µM [inhibitor, single point]
O=C(CSc1nnc(-c2cccc(S(=O)(=O)N3CCCC3)c2)n1-c1ccccc1)Nc1cccc(C(=O)O)c1 |  | inconclusive: 37.7 µM [inhibitor, partial curve]
Cc1c([N+](=O)[O-])cc(C(=O)Oc2ccc(Br)cc2C(=S)N2CCCCC2)cc1[N+](=O)[O-] |  | inconclusive: 10.6 µM [inhibitor, partial curve]
Cc1nn(-c2ccccc2)c(Cl)c1C1C(C#N)=C(N)Oc2c1c(C)nn2-c1ccccc1 (stereo not given) | inactive: -27.4% | 
CN(C(=O)c1ccc(S(=O)(=O)N(C)C)cc1)c1ccc2ccccc2c1 | inactive: -9.23% | 
Cc1ccnc(NCc2c(O)ccc3ccccc23)c1 |  | inconclusive: 23.8 µM [inhibitor, partial curve]
CCN(CC(=O)NCc1ccc(F)cc1)C(=O)/C=C/c1ccc(S(=O)(=O)N(CC)CC)cc1 | inactive: -7.73% | 
Cn1c2nc(=O)n(-c3ccccc3)c(=O)c-2nc2c1CCCC2 |  | inconclusive: 29.9 µM [inhibitor, partial curve]
COC(=O)[C@@]1(C)[C@H]2C(=O)N(Cc3ccccc3)C(=O)[C@H]2[C@H]2CN=C(SCC(=O)c3ccccc3)N21 |  | inconclusive: 21.2 µM [inhibitor, partial curve]
O=C(OC(c1ccccc1)c1nccc2ccccc12)c1cccc([N+](=O)[O-])c1 (stereo not given) |  | inconclusive: 26.7 µM [inhibitor, partial curve]
O=C1/C(=C/c2cccc(O)c2)SC(=S)N1CC1CCCO1 (stereo not given) |  | inconclusive: 37.7 µM [inhibitor, single point]
O=[N+]([O-])c1ccc(N2CCOCC2)c([N+](=O)[O-])c1 | inactive: -0.486% | 
COCc1nnc(NC(=O)CSc2ccc(C)cc2)s1 |  | inconclusive: 29.9 µM [inhibitor, partial curve]
O=C(CCC(=O)OCC(F)(F)C(F)F)Nc1ccc(F)cc1F |  | inconclusive: 26.7 µM [inhibitor, partial curve]
O=C(c1cccc(Cl)c1)N1CCN(c2ncnc3c2cnn3-c2ccccc2)CC1 | inactive: -17.1% | 
COc1cc(NC(=O)CCNC(=O)Cn2cnc3sc4c(c3c2=O)CCCC4)cc(OC)c1OC |  | inconclusive: 18.9 µM [inhibitor, partial curve, poor fit]
Cn1cnc(C(=O)N2CCN(c3ccccc3)CC2)c1C(=O)N1CCN(c2ccccc2)CC1 |  | inconclusive: 33.6 µM [inhibitor, partial curve]
O=C(NN1CCOCC1)c1cccc(COc2cccc(Br)c2)c1 |  | inconclusive: 23.8 µM [inhibitor, single point]
COc1cccc(-c2nnc(Nc3nc4c(F)cccc4s3)o2)c1 |  | active: 21.2 µM
CCC1=NN2C(=N)/C(=C/c3ccc(OS(=O)(=O)c4ccccc4)c(OC)c3)C(=O)N=C2S1 |  | active: 18.9 µM

Part of the list above in order of heavy-atom count, ascending.
Compound | max response, negative = inhibition | Potency
O=C(N/N=C1/CC2C=CCC12)c1ccco1 (stereo not given) |  | active: 29.9 µM
CCc1nnc(NC(=O)/C=C/c2ccco2)s1 | inactive: -9.06% | 
CCC(C(=O)Nc1nc(C)cs1)c1ccccc1 (stereo not given) |  | active: 26.7 µM
COCCSc1ccccc1C(=O)N1CCOCC1 |  | inconclusive: 15 µM [inhibitor, partial curve]
CCc1n[nH]c(=S)n1/N=C/c1ccc(NC(C)=O)cc1 |  | inconclusive: 21.2 µM [inhibitor, single point]
O=C(CSS(=O)(=O)O)N1CCN(C(=O)c2ccoc2)CC1 |  | inconclusive: 26.7 µM [inhibitor, partial curve]
Cc1ccc(NC(=S)NC(=O)CC2CC(C)(C)OC2=O)cc1 (stereo not given) |  | inconclusive: 8.44 µM [inhibitor, single point]
Cn1c2nc(=O)n(-c3ccccc3)c(=O)c-2nc2c1CCCC2 |  | inconclusive: 29.9 µM [inhibitor, partial curve]
O=C(NN1CCOCC1)c1cccc(COc2cccc(Br)c2)c1 |  | inconclusive: 23.8 µM [inhibitor, single point]
CN1CCN(CCOC2Cc3ccccc3Sc3ccc(Cl)cc32)CC1 (stereo not given) | inactive: -2% | 
C[C@H](NC(=O)[C@@H]1CSC2c3ccccc3C(=O)N21)C(=O)NC1CCCCC1 (stereo not given in full) | inconclusive: -28.9% [inhibitor] | 
O=C(c1cccs1)N1CCN(C(=O)C(c2ccccc2)c2ccccc2)CC1 |  | inconclusive: 29.9 µM [inhibitor, single point]
Cc1[nH][nH]c(=O)c1C(c1ccc(-c2cccc(C(=O)O)c2)o1)c1c(C)[nH][nH]c1=O |  | inconclusive: 26.7 µM [inhibitor, partial curve]
COc1cccc(-c2cnc3c(NC=O)cc(-c4cccc(C(=O)N(C)C)c4)cn23)c1 | inconclusive: -32.6% [inhibitor] | 
CCC1=NN2C(=N)/C(=C/c3ccc(OS(=O)(=O)c4ccccc4)c(OC)c3)C(=O)N=C2S1 |  | active: 18.9 µM
CCN(CC(=O)NCc1ccc(F)cc1)C(=O)/C=C/c1ccc(S(=O)(=O)N(CC)CC)cc1 | inactive: -7.73% | 
COc1cc(NC(=O)CCNC(=O)Cn2cnc3sc4c(c3c2=O)CCCC4)cc(OC)c1OC |  | inconclusive: 18.9 µM [inhibitor, partial curve, poor fit]
O=C(CSc1nnc(-c2cccc(S(=O)(=O)N3CCCC3)c2)n1-c1ccccc1)Nc1cccc(C(=O)O)c1 |  | inconclusive: 37.7 µM [inhibitor, partial curve]
